Library screen at single concentrations

Chains of the proteins cited; added tags and fusions are not shown.
UniProt I6X8D2, whole entry: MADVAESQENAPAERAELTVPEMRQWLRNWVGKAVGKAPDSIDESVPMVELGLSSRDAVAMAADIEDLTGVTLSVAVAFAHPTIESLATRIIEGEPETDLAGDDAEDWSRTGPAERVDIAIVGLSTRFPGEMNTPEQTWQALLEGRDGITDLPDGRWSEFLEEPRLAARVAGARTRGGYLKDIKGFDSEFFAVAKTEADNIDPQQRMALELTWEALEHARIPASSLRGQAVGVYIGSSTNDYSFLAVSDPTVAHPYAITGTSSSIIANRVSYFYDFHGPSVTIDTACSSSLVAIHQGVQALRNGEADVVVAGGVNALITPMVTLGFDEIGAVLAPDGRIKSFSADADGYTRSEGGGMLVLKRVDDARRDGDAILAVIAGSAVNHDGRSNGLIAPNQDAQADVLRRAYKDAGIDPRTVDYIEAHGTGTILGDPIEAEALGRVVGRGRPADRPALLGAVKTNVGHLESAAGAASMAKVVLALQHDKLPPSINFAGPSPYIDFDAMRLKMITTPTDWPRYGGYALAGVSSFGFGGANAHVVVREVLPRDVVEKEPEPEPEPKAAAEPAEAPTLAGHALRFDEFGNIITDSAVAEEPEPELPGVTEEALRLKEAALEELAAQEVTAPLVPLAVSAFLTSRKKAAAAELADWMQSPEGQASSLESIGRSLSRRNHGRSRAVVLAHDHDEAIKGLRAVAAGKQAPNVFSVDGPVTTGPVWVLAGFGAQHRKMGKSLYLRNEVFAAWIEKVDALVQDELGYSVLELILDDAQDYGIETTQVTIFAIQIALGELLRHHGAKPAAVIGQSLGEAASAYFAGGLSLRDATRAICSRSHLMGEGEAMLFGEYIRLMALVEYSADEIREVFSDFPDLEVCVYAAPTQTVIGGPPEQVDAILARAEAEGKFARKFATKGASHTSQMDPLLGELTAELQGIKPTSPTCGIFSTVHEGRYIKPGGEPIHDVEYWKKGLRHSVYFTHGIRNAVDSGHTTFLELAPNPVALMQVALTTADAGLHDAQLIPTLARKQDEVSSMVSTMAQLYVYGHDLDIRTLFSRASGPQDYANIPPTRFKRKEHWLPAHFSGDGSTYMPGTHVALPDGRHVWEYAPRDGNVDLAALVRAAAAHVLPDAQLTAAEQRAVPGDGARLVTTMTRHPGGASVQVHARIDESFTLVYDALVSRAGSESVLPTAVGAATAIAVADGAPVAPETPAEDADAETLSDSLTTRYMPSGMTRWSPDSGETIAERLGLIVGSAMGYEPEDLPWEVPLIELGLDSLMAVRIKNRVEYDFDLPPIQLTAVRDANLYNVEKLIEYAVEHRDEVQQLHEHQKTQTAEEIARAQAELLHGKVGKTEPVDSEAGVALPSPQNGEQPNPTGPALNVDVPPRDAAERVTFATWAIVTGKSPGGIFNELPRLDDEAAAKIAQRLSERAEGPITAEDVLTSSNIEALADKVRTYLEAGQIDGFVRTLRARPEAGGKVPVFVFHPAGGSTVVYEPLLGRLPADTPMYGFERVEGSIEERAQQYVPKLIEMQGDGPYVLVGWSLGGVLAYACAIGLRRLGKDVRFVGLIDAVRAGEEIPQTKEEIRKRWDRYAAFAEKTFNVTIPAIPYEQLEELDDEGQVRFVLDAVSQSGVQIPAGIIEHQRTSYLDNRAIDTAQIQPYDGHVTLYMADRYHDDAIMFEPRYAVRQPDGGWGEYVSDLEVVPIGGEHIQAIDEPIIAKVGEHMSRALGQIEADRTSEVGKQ

From ChEMBL document CHEMBL3988442, “University of Dundee, Small-Polar-MMV Screening Library” (2021).

Toxoplasma: 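Assay of Toxoplasma gondii numbers, read through their beta-galactosidase reporter with a colour substrate. Concentration: 10 µM. Higher reads as fewer parasites (inferred from which compounds were picked for retests). Size under these conditions: about 67,000 compounds, about 260 of them at 50% or above in at least one test.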
Pks13 thioesterase: 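Polyketide synthase Pks13, Mycobacterium tuberculosis (UniProt I6X8D2). Enzyme assay of the thioesterase domain of polyketide synthase 13; the read-out is not stated. Concentration: 30 µM. The record gives no direction; the compounds picked for IC50 retests had high values, so higher reads as stronger inhibition. Size under these conditions: about 67,000 compounds, about 300 of them at 50% or above in at least one test.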

The filed quantity is “Percent Effect” (%). The record does not define 0% and 100%; most values in the screen are far below 50% and negative numbers occur (in some assays of this library far below -100). This is an unselected part of the compounds tested. A dash means the value is not listed here; it may have been measured.

structure	Toxoplasma	Pks13 thioesterase
CCOCCC(=O)N1CCN(CC(C)O)CC1 (stereo not shown)	0.3409%	0.5111%
CCc1nc(CN2CCCN(C(=O)c3cnc[nH]3)CC2)cs1	5.277%	-7.54%
c1ccc(CN2CCN3C[C@H](Oc4cccnc4)C[C@H]3C2)nc1	-	-35.4%
CCn1nc(C)cc1C(=O)N1C[C@@H]2C[C@@H](c3nc(C)cs3)O[C@@H]2C1	-	12.11%
CCn1ncc2c1C(COC)CN(Cc1ccc(OC)cc1)C2 (stereo not shown)	0.9038%	-13.37%
O=C1CN(C(=O)c2cc(-c3ccco3)nc3c(Cl)cccc23)CCN1	-3.029%	6.713%
Cc1nn(-c2ncccn2)c2c1C(c1cnn(C)c1C)SCC(=O)N2 (stereo not shown)	-14.1%	-59.71%
Cc1ccccc1-c1ncc(CNCc2csc(C(C)C)n2)s1	-5.421%	-30.64%
CCc1nnc2n1CCN(Cc1nc(-c3ccoc3)no1)C2	-11.5%	-6.933%
CC1CCC(NC(=O)CNC2(c3ccc(F)cc3)CCOCC2)CC1 (stereo not shown)	7.325%	-28.49%
O=C(NC[C@H]1OC[C@@H](NCc2ccccn2)[C@@H]1O)c1ccc(F)cc1	5.391%	-22.39%
CCN(CC)CC(=O)N1CCCCC1c1nc(C)cs1 (stereo not shown)	-2.437%	-12.6%
Cc1ccc(-c2cc(C(=O)NCCN3CCOCC3)n[nH]2)s1	27.02%	-7.378%
CCN(CCNS(=O)(=O)C1CCOCC1)C(=O)OC(C)(C)C	6.938%	-6.781%
O=c1[nH]cnc2[nH]c(N3CCCCC3)nc12	14.31%	-16.96%
Cn1nc(C(=O)NC2(c3ccc(Cl)cc3)CCCC2)ccc1=O	13.12%	4.041%
[H][C@]12CC[C@]([H])(CN(CC(=O)N(C)C)C1)N(C(=O)Cc1ccccc1Cl)C2	28.12%	-
CCCOCC(=O)NC1CCc2nc(C)cn2C1 (stereo not shown)	-0.553%	-27.97%
Cc1nc(C)n(CC(=O)N2CCc3ncc(Cl)cc3C2)n1	4.832%	2.261%
COCC(=O)N1CCc2ccccc2C12CCNCC2.Cl	21.62%	-
COCCO[C@H]1CCN(Cc2ccoc2)[C@H]1Cc1cccnc1	15.3%	-16.25%
CCC[C@H]1CN(c2nccc(OC)n2)C[C@@H]1NC(=O)C1CCOCC1	-7.493%	-
Cc1csc(N2CCN(Cc3nccn3C)CC2C)n1 (stereo not shown)	-10.37%	2.366%
O=C(c1cscn1)N1CCC2(CC1)CCN(S(=O)(=O)c1ccccc1)C2	1.242%	-30.41%
CC(C)COC(C)C(=O)NCCNC(=O)C(C)C (stereo not shown)	6.808%	0.4142%
O=C(COc1ccccc1F)NCCC(O)c1ccco1 (stereo not shown)	-10.04%	-36.05%
Cc1ccc(CNC2(Cc3cc(-c4ccc(F)cc4)on3)COC2)o1	12.46%	0.6142%
Cc1c(C)n(CC(O)CN2CCOCC2)c2c(Cl)cccc12.Cl (stereo not shown)	-8.143%	-
Cc1ccc(N2CC[C@@]3(O)CCN(S(C)(=O)=O)C[C@H]3C2)nn1	-	8.553%
O=C(N1CCOCC1)[C@@]12CCO[C@@H]1CCN(C1CCOCC1)C2	-	14.32%
CS(=O)(=O)N1CCC(OCCCc2ccccc2)C1 (stereo not shown)	-17.11%	5.233%
NC(=O)c1cc2c(nc1Oc1ccccc1CN1CCCCC1)CCC2	8.88%	-18.67%
COCC(=O)N1CC(c2ccnc(Nc3cc(C(F)(F)F)ccn3)n2)C1	-6.008%	-
Cc1nc(CN2C(=O)COC3(CCN(Cc4ccco4)CC3)C2C)cs1.O=C(O)C(F)(F)F (stereo not shown)	19.73%	-
c1ccc(CO[C@H]2C[C@@H]3CN(Cc4cccnc4)C[C@@H]3C2)cc1	-	6.203%
Cc1oc(C(=O)O)cc1S(=O)(=O)Nc1cc(Br)ccc1F	10.42%	-2.394%
Cc1noc(C)c1CN1C[C@@H](NS(=O)(=O)N(C)C)[C@H](C(C)C)C1	-3.02%	-40.23%
CCOCCCNc1nc2c(s1)c(C)nn2C	-0.8738%	-33.24%
COc1cc(N2CCCC3(CCN(c4cccnc4)C3=O)C2)ncn1.O=C(O)C(F)(F)F (stereo not shown)	-19.81%	-
CC(C)CN(CC(C)C)Cn1ncc2cn(-c3ccccc3)nc2c1=O	4.806%	-33.18%

Once more, the final 3:

Result for CCOCCCNc1nc2c(s1)c(C)nn2C was Toxoplasma: -0.8738%; Pks13 thioesterase: -33.24%.
Result for COc1cc(N2CCCC3(CCN(c4cccnc4)C3=O)C2)ncn1.O=C(O)C(F)(F)F (stereo not shown) was Toxoplasma: -19.81%.
Result for CC(C)CN(CC(C)C)Cn1ncc2cn(-c3ccccc3)nc2c1=O was Toxoplasma: 4.806%; Pks13 thioesterase: -33.18%.